Data: article PMC3827131
No constants are given. Whether binding was seen depends on the method and setting. Binding seen in cells or lysates may run through a third protein. Binding can be weak; no strength is given. Where a sequence is shown, tags or fusion partners need not be part of it. Blank lines part the entries; values can stand above or below the molecule they belong to.

Sequences of proteins named here, by UniProt entry; tags and fusion partners are left off. A change or cut given only in a name is not applied to a line headed by its entry.
UniProt A1L2K5: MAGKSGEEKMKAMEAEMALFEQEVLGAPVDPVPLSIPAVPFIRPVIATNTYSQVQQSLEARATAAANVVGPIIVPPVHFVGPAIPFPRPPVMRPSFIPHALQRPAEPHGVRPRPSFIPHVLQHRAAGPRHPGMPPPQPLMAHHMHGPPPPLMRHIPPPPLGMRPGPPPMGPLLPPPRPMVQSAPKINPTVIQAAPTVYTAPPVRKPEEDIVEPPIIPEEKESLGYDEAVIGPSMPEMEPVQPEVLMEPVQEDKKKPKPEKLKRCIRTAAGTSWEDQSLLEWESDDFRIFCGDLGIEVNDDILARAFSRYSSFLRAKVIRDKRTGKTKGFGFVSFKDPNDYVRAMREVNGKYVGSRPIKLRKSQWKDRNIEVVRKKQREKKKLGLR

Legend:
Assay in all cases: split reporter; BiFC with Venus fragments VN and VC fused to the N-terminus of the ORFs; mRNAs injected into stage VI Xenopus oocytes, 48 h in OCM; confocal microscopy of the vegetal cortex at constant gain, and of hand-sectioned fixed oocytes
[1] = molecular target: T1, VN-Rbm24b / VC-Rbm24b (BiFC fusion of Rbm24b) (Xenopus laevis) (UniProt Q9I8B3)
T1 sequence: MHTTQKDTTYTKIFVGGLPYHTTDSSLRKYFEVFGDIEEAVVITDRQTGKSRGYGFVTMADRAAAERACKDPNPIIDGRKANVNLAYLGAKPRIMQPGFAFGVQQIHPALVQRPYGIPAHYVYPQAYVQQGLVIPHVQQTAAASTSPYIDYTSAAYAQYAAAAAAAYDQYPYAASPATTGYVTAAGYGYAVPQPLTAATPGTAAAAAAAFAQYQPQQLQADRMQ

[2] = molecular target: VN-XveloFL / VC-XveloFL (BiFC fusion of XveloFL) (Xenopus laevis)
[3] = molecular target: VN-XveloSV / VC-XveloSV (BiFC fusion of XveloSV) (Xenopus laevis)

- binding [1]: binds
Molecule: VN-Rbm42b / VC-Rbm42b (BiFC fusion of Rbm42b) (from UniProt A1L2K5)

- binding [2]: binds
- binding [3]: binds
B1: VN-Rbm24b / VC-Rbm24b (BiFC fusion of Rbm24b) (protein, UniProt Q9I8B3 1-224)
chain: T1 sequence
